Measurements reported in PubChem BioAssay AID686938 (Drosophila RNAi Screening Center, 2013).
Test: 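Knock-downs reducing store-operated calcium influx in Drosophila cells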 (primary screen). Cell system: Drosophila S2R+ cells. Reagents: long dsRNA against Drosophila genes, about 0.25 µg dsRNA per well, roughly 10,000 cells. Time to read-out: 5 days of knock-down before the calcium assay. Treatment: thapsigargin (SERCA pump blocker) to empty calcium stores; entry signal taken 4 min after adding it. Measured: 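Per-well fluo-4 fluorescence in two replicates, unnormalised, measured in resting cells and 4 min after store depletion by the SERCA blocker thapsigargin; ratio of the two present in few wells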. Reading the numbers: calcium entry signal: higher = stronger calcium signal after store depletion; entry to resting ratio: higher = more calcium entry relative to resting level; resting calcium signal: higher = higher resting calcium signal. Rule for the call: 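Hit if the duplicate-averaged plate z-score for entry over resting signal is under −3; wells with weak total dye signal (Fmax z < −2) or more than 5 off-targets removed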. Calls: active = strongly reduced calcium entry; inactive = no strong reduction.
In all, the deposit lists about 23,000 reagents; shown is an unselected part of those that have a named target and a result. Over the whole deposit, 75 (0.33%) are marked active. 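Raw plate signals without normalisation; calls rest on plate z-scores that were not deposited; ratio present for only 364 wells.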 The numbers tell different reagents against one gene apart. A plus sign joins genes that one reagent is predicted to hit. Reagent sequences are not shown. The record does not give: the dose of the treatment.

{"gene knocked down": "Cog4 (Component of oligomeric golgi complex 4)", "reagent": 1, "calcium entry signal, replicate 1 (fluorescence units)": 3.63e7, "resting calcium signal, replicate 1 (fluorescence units)": 2.18e7, "activity call": "inactive"}
{"gene knocked down": "CG14316", "reagent": 1, "calcium entry signal, replicate 1 (fluorescence units)": 3.61e7, "calcium entry signal, replicate 2 (fluorescence units)": 3.88e7, "resting calcium signal, replicate 1 (fluorescence units)": 4.38e7, "resting calcium signal, replicate 2 (fluorescence units)": 1.65e7, "activity call": "inactive"}
{"gene knocked down": "CG10405", "reagent": 1, "calcium entry signal, replicate 1 (fluorescence units)": 2.92e7, "calcium entry signal, replicate 2 (fluorescence units)": 6.51e7, "resting calcium signal, replicate 1 (fluorescence units)": 1.63e7, "resting calcium signal, replicate 2 (fluorescence units)": 6.16e7, "activity call": "inactive"}
{"gene knocked down": "capt (capulet)", "reagent": 1, "calcium entry signal, replicate 1 (fluorescence units)": 3.64e7, "calcium entry signal, replicate 2 (fluorescence units)": 3.39e7, "resting calcium signal, replicate 1 (fluorescence units)": 1.65e7, "resting calcium signal, replicate 2 (fluorescence units)": 1.47e7, "activity call": "inactive"}
{"gene knocked down": "capt (capulet)", "reagent": 2, "calcium entry signal, replicate 1 (fluorescence units)": 3.68e7, "calcium entry signal, replicate 2 (fluorescence units)": 3.36e7, "resting calcium signal, replicate 1 (fluorescence units)": 1.82e7, "resting calcium signal, replicate 2 (fluorescence units)": 1.58e7, "activity call": "inactive"}
{"gene knocked down": "ash1 (absent, small, or homeotic discs 1)", "reagent": 1, "calcium entry signal, replicate 1 (fluorescence units)": 2.04e7, "calcium entry signal, replicate 2 (fluorescence units)": 3.09e7, "resting calcium signal, replicate 1 (fluorescence units)": 1.03e7, "resting calcium signal, replicate 2 (fluorescence units)": 2.08e7, "activity call": "inactive"}
{"gene knocked down": "Oda (Ornithine decarboxylase antizyme)", "reagent": 1, "calcium entry signal, replicate 1 (fluorescence units)": 2.67e7, "calcium entry signal, replicate 2 (fluorescence units)": 2.67e7, "resting calcium signal, replicate 1 (fluorescence units)": 1.37e7, "resting calcium signal, replicate 2 (fluorescence units)": 1.31e7, "activity call": "inactive"}
{"gene knocked down": "rept (reptin)", "reagent": 1, "calcium entry signal, replicate 1 (fluorescence units)": 2.49e7, "calcium entry signal, replicate 2 (fluorescence units)": 1.89e7, "resting calcium signal, replicate 1 (fluorescence units)": 1.73e7, "resting calcium signal, replicate 2 (fluorescence units)": 1.15e7, "activity call": "inactive"}
{"gene knocked down": "CG13364", "reagent": 1, "calcium entry signal, replicate 1 (fluorescence units)": 2.86e7, "calcium entry signal, replicate 2 (fluorescence units)": 4.17e7, "entry to resting ratio": 2, "resting calcium signal, replicate 1 (fluorescence units)": 1.46e7, "resting calcium signal, replicate 2 (fluorescence units)": 1.74e7, "activity call": "inactive"}
{"gene knocked down": "CG13364", "reagent": 2, "calcium entry signal, replicate 1 (fluorescence units)": 3.77e7, "calcium entry signal, replicate 2 (fluorescence units)": 4.93e7, "resting calcium signal, replicate 1 (fluorescence units)": 1.88e7, "resting calcium signal, replicate 2 (fluorescence units)": 2.04e7, "activity call": "inactive"}
{"gene knocked down": "bbx + waw", "reagent": 1, "calcium entry signal, replicate 1 (fluorescence units)": 4.54e7, "calcium entry signal, replicate 2 (fluorescence units)": 4.92e7, "resting calcium signal, replicate 1 (fluorescence units)": 2.07e7, "resting calcium signal, replicate 2 (fluorescence units)": 2.28e7, "activity call": "inactive"}
{"gene knocked down": "bbx + waw", "reagent": 2, "calcium entry signal, replicate 1 (fluorescence units)": 4.69e7, "calcium entry signal, replicate 2 (fluorescence units)": 3.67e7, "resting calcium signal, replicate 1 (fluorescence units)": 1.97e7, "resting calcium signal, replicate 2 (fluorescence units)": 1.55e7, "activity call": "inactive"}
{"gene knocked down": "mus81", "reagent": 1, "calcium entry signal, replicate 1 (fluorescence units)": 3.62e7, "calcium entry signal, replicate 2 (fluorescence units)": 5.83e7, "entry to resting ratio": 2, "resting calcium signal, replicate 1 (fluorescence units)": 1.85e7, "resting calcium signal, replicate 2 (fluorescence units)": 2.23e7, "activity call": "inactive"}
{"gene knocked down": "mus81", "reagent": 2, "calcium entry signal, replicate 1 (fluorescence units)": 3.78e7, "calcium entry signal, replicate 2 (fluorescence units)": 5.48e7, "entry to resting ratio": 2.1, "resting calcium signal, replicate 1 (fluorescence units)": 1.82e7, "resting calcium signal, replicate 2 (fluorescence units)": 2.11e7, "activity call": "inactive"}

Sorted by “calcium entry signal, replicate 2 (fluorescence units)” (ascending): 2 of the entries above
{"gene knocked down": "CG14316", "reagent": 1, "calcium entry signal, replicate 1 (fluorescence units)": 3.61e7, "calcium entry signal, replicate 2 (fluorescence units)": 3.88e7, "resting calcium signal, replicate 1 (fluorescence units)": 4.38e7, "resting calcium signal, replicate 2 (fluorescence units)": 1.65e7, "activity call": "inactive"}
{"gene knocked down": "CG10405", "reagent": 1, "calcium entry signal, replicate 1 (fluorescence units)": 2.92e7, "calcium entry signal, replicate 2 (fluorescence units)": 6.51e7, "resting calcium signal, replicate 1 (fluorescence units)": 1.63e7, "resting calcium signal, replicate 2 (fluorescence units)": 6.16e7, "activity call": "inactive"}
